Measured values from article PMC3194794.
These are yes or no findings as the source states them, for the method shown. A result given as binding can be weak or reduced; the word gives no strength. Tags and fused reporters may be left off the sequences shown.

Target: Dynamin 2, yeast two-hybrid fusion (human)
Assay: two-hybrid; S. cerevisiae AH109 co-transformed with bait and prey plasmids; selection on SD-Leu-Trp, interaction by growth on SD-Leu-Trp-His-Ade

- binding: binds
B1: Dynamin 1, yeast two-hybrid fusion (protein, UniProt Q05193 1-864)
chain: MGNRGMEDLIPLVNRLQDAFSAIGQNADLDLPQIAVVGGQSAGKSSVLENFVGRDFLPRGSGIVTRRPLVLQLVNATTEYAEFLHCKGKKFTDFEEVRLEIEAETDRVTGTNKGISPVPINLRVYSPHVLNLTLVDLPGMTKVPVGDQPPDIEFQIRDMLMQFVTKENCLILAVSPANSDLANSDALKVAKEVDPQGQRTIGVITKLDLMDEGTDARDVLENKLLPLRRGYIGVVNRSQKDIDGKKDITAALAAERKFFLSHPSYRHLADRMGTPYLQKVLNQQLTNHIRDTLPGLRNKLQSQLLSIEKEVEEYKNFRPDDPARKTKALLQMVQQFAVDFEKRIEGSGDQIDTYELSGGARINRIFHERFPFELVKMEFDEKELRREISYAIKNIHGIRTGLFTPDMAFETIVKKQVKKIREPCLKCVDMVISELISTVRQCTKKLQQYPRLREEMERIVTTHIREREGRTKEQVMLLIDIELAYMNTNHEDFIGFANAQQRSNQMNKKKTSGNQDEILVIRKGWLTINNIGIMKGGSKEYWFVLTAENLSWYKDDEEKEKKYMLSVDNLKLRDVEKGFMSSKHIFALFNTEQRNVYKDYRQLELACETQEEVDSWKASFLRAGVYPERVGDKEKASETEENGSDSFMHSMDPQLERQVETIRNLVDSYMAIVNKTVRDLMPKTIMHLMINNTKEFIFSELLANLYSCGDQNTLMEESAEQAQRRDEMLRMYHALKEALSIIGDINTTTVSTPMPPPVDDSWLQVQSVPAGRRSPTSSPTPQRRAPAVPPARPGSRGPAPGPPPAGSALGGAPPVPSRPGASPDPFGPPPQVPSRPNRAPPGVPSRSGQASPSRPESPRPPFDL
